The target of this test is T1, NIP1;1::35S-SPYNE (NIP1;1 full length fused to the N-terminal YFP fragment) (Arabidopsis thaliana) (UniProt Q8VZW1).
T1 sequence: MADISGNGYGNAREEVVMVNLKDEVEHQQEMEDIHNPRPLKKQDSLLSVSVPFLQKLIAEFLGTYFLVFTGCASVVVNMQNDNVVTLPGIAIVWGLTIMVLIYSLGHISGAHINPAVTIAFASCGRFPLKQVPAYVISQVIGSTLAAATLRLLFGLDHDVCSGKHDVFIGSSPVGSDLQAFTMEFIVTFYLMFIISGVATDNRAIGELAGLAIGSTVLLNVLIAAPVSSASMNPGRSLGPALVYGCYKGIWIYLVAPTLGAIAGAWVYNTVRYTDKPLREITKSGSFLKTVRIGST
The experiment in a line: split reporter; BiFC with split YFP (SPYNE/SPYCE) in protoplasts of Arabidopsis suspension cultured cells, imaged by confocal microscopy after 16 h at 22°C.

No constants are given. Whether binding was seen depends on the method and setting. In cells and extracts the contact can be indirect. Some binding calls cover weakened binding; strength is not graded here. Tags and fused reporters may be left off the sequences shown.

For one molecule, binding results are on record in article PMC5351991.

B1: CPK31::35S-SPYCE (CPK31 full length fused to the C-terminal YFP fragment) (enzyme, UniProt Q9S9V0 1-484)
chain: MGCYSSKNLKQSKRTILEKPFVDIGKVYILGDELGQGQFGITRKCVEKTSGKTYACKTILKTNLKSREDEEAVKREIRIMKHLSGEPNIVEFKKAYEDRDSVHIVMEYCGGGELFKKIEALSKDGKSYSEKEAVEIIRPIVNVVKNCHYMGVMLRDLKPENFLLSSTDKNATVKAIDFGCSVFIEEGEVHRKFAGSAYYIAPEVLQGKYGKEADIWSAGIILYILLCGKPPFVTEPEAQMFSEIKSAKIDVDSESWKFIDVKAKHLVNRMLNRNPKERISAAEVLGHPWMKDGEASDKPIDGVVLSRLKQFRDMNKLKKVALKVIAANLSEEEIKGLKTLFTNIDTDKSGTITLEELKTGLTRLGSNLSKTEVEQLMEAADVDGNGTIDIDEFISATMHRYRLDRDDHVYQAFQHFDKDNDGHITKEELEMAMKEHGVGDEVSIKQIITEVDTDNDGKINFEEFRTMMRSGSSLQPQRELLPIK
With B1, the binding entry is “binds”.
